Experimental data taken from patent US20260216362A1, “ANTI-BDCA2 ANTIBODY-DRUG CONJUGATE AND USE THEREOF” (DUALITY BIOLOGICS (SHANGHAI) CO., LTD., priority 2022, published 2026).
These are yes or no findings as the source states them, for the method shown. Some results given as binding are weak or reduced against the parent protein; the word gives no strength.

T1: human BDCA2 expressed on CHOK1 cells (human, UniProt Q8WTT0 1-213)
T1 construct: whole, on cells; also called CHOK1-hBDCA2; CHOK1-humanBDCA2
T1 sequence (looked up): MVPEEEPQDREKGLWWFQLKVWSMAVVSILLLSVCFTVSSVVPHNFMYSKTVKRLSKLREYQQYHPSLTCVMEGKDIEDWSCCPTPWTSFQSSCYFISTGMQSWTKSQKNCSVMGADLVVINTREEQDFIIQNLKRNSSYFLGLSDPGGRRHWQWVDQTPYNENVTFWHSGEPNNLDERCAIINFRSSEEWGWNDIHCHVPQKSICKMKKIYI


Experiments:
[1] = biological target: cynomolgus monkey BDCA2 expressed on 293F cells (cynomolgus monkey); assay: FACS on 293F-cynoBDCA2 cells
[2] = biological target: T1, human BDCA2 expressed on CHOK1 cells; assay: FACS on CHOK1-humanBDCA2 cells
[3] = biological target: recombinant Human BDCA2 (human) (UniProt Q8WTT0); assay: SPR

binding [1] | binding [2] | binding [3] | Binder
binds | binds | – | Hu005-04 (antibody, human IgG1, kappa, V domains shown) VH: QVQLQQSGPGLVKPSETLSLTCTVSGGSLTNYGVHWIRQPPGKGLEWIGVIWSGESTDYDAAFISRVTISKDNSKNQVSLKLSSVTAADTAVYYCARRRSHYYGYVMDYWGQGTTVTVSS VL: DIVLTQSPASLAVSPGQRATITCKASQSIDYDAIGYLNWYQQKPGQPPKLLIYAASNLESGVPARFSGSGSGTDFTLTINPVEANDTANYYCQQSNEDPPTFGQGTKLEIKR
binds | – | binds | Hu033-03 (antibody, human IgG1, kappa, V domains shown, Humanized IgG1; also called Hu033-03(BM3)) VH: EVQLVESGGGLVKPGGSLRLSCAASGFTFSSYGMSWVRQAPGKGLEWVSTISSGDSYTYYPDSVKGRFTISRDNAKNSLYLQMNSLRAEDTAVYYCARQIYYDYAYYFDFWGQGTTVTVSS VL: DIVLTQSPASLAVSPGQRATITCRASESVSFRTSHLMHWYQQKPGQPPKLLIYGASNLESGVPARFSGSGSETDFTLTINPVEAEDTANYFCQQSIEDPPTFGGGTKVEIKR
binds | – | binds | Hu033-20 (antibody, human IgG1, kappa, V domains shown) VH: EVQLVESGGGLVKPGGSLRLSCAASGFTFRSYGMSWVRQAPGKRLEWVSTISSGDSYTYYPDSVKGRFTISRDNAKNSLYLQMNSLKAEDTAVYYCARQIYYDYAYYFDFWGQGTTVTVSS VL: DIVMTQSPDSLAVSLGERATINCRASESVSFRTSHLMHWYQQKPGQPPKLLIYGASNLESGVPDRFSGSGSGTDFTLTISSLQAEDVAVYYCQQSIEDPPTFGGGTKVEIKR
